Results are given in words; binding and its absence hold for the method and conditions named.
Target: PaTonB-96 (C-terminal 96 residues of TonB protein from Pseudomonas aeruginosa) (Pseudomonas aeruginosa) (UniProt Q51368)
Assay: NMR 15N relaxation (rotational correlation time from T1/T2); one mM PaTonB-96 in 20 mM sodium phosphate buffer pH 6.0, 10% D2O, 25 °C, 850 MHz; tau_c 6.9 ns from T1/T2 (model-free), 7.2 ns from MD simulation scaled to the relaxation data, compared with literature values of monomeric proteins of similar weight; both purified

binding: no binding (tested: one mM)
B1: PaTonB-96 (C-terminal 96 residues of TonB protein from Pseudomonas aeruginosa) (domain or fragment, UniProt Q51368 247-342)
chain: SHMGSLNDSDIKPLRMDPPVYPRMAQARGIEGRVKVLFTITSDGRIDDIQVLESVPSRMFDREVRQAMAKWRFEPRVSGGKIVARQATKMFFFKIEKRR
